Test results reported in publication PMC6941992, “Polar recruitment of RLD by LAZY1-like protein during gravity signaling in root branch angle control” (Nature Communications, 2020).
These are yes or no findings as the source states them, for the method shown. Binding calls can cover weak binding; strength is not graded here. Where a sequence is shown, tags or fusion partners need not be part of it.

Amino acid sequences for entries named in this document (tags omitted). A change or cut given only in a name is not applied to a line headed by its entry.
UniProt Q5XVG3: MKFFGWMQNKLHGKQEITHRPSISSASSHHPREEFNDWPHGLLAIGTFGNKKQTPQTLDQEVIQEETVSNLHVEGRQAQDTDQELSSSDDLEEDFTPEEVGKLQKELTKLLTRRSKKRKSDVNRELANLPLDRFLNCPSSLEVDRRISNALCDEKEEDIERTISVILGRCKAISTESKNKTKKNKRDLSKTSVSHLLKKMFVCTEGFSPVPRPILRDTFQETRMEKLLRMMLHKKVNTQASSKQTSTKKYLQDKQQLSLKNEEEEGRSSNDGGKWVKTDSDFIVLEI

Columns and labels:
[1] = biological target: T1, GST-LZY3 CCL (Arabidopsis thaliana) (UniProt Q5XVG3); experiment: pull-down; purified protein and GST-fusion protein mixed with glutathione sepharose 4B, 4 °C; eluates on SDS-PAGE; both purified
T1 sequence: KWVKTDSDFIVLEI

[2] = biological target: CCL domain of LZY3, yeast two-hybrid fusion (Arabidopsis thaliana); experiment: two-hybrid; spot assay after mating (Y2HGold x Y187) of GAL4 DBD and AD fusions of full length or portions of LZY or RLD; -Leu/-Trp/-His/-Ade, 2 days at 30 °C
[3] = biological target: LZY3 (LAZY1-LIKE 3), coding region fused to the GAL4 DNA-binding domain (Arabidopsis thaliana); experiment: as above

Molecule: RLD3 BRX domain, purified (Arabidopsis thaliana) (domain or fragment)
- binding [1]: binds

B1: BRX domain (C terminus) of RLD1, yeast two-hybrid fusion (domain or fragment, UniProt Q947D2 1023-1078)
chain: AEWIEQYEPGVYITLVALHDGTRDLRRVRFSRRRFGEHQAETWWSENREKVYEKYN
- binding [2]: binds
- binding [3]: binds
